No constants are given. Whether binding was seen depends on the method and setting. Binding seen in cells or lysates may run through a third protein. Here binding means that the protein was enriched with, or labelled near, the bait; the list need not be complete.

The target in this experiment is T1, AGIA-AirID-Pbdc1 isoform 1 (mouse) (UniProt Q9D0B6).
T1 sequence: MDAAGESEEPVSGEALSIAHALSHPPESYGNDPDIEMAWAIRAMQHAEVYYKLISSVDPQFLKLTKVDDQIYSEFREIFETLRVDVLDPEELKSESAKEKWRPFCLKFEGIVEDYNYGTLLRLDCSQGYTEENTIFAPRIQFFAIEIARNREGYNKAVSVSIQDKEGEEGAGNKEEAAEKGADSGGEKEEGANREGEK
As to the kind of experiment: proximity labelling.

On to HNRNPK (from UniProt P61979 1-463), for which the binding result is given as “binds”.

B1: SART1 (protein, UniProt Q9Z315 1-806)
chain: MGSSKKHRGEKEAAGTTAAAGTGGTTEQPPRHREHKKHKHRSSGGGSSGGERRKRSRERGSERGSGRRGAEAEARSGAHGRERSQAEPSERRVKREKRDDGYEAAASSKASSGDASSLSIEETNKLRAKLGLKPLEVNAVKKEAGTKEEPVAADVINPMALRQREELREKLAAAKEKRLLNQKLGKIKTLGEDDPWLDDTAAWIERSRQLQKEKDLAEKRAKLLEEMDQEFGVSTLVEEEFEQRRQDLYSARDLQGLTVEHAIDSFREGETVVLTLKDKGVLQDGEDVLVNVNMVDKERADKNVELRKKKPDYLPYAEDESVDDLAQQKPRSILAKYDEELEGERPHSFRLEQGGMADGLRERELEEIRTKLRLQAQSLSSVGPRLASEYLSPEEMVTFKKTKRRVKKIRKKEKEVIMRADDLLPLGDQTQDGDFGSRLRGRGRRRVPEVEEEALEDEEKDPVAQPPPSDDTRVENMDISDEEDGGALPPGSPEGLEEDEAELELQKQLEKGRRLRQLQQLQQLRDSGEKVLEIVKKLESRQRGWEEEEDPERKGTIVFNATSEFCRTLGEIPTYGLAGNREEQEELMDFERDEERSANGGSESDGEENIGWSTVNLDEEKQHQDFSASSTTILDEEPIVNRGLAAALLLCQNKGLLETTVQKVARVKAPNKSLPSAVYCIEDKMAIDDKYSRREEYRGFTQDFKEKDGYKPDVKIEYVDETGRKLTPKEAFRQLSHRFHGKGSGKMKTERRMKKLDEEALLKKMSSSDTPLGTVALLQEKQKAQKTPYIVLSGSGKSMNANTITK
As to B1, the binding entry was “binds”.

B2: SNRPA1 (protein, UniProt P57784 1-255)
chain: MVKLTAELIEQAAQYTNAVRDRELDLRGYKIPVIENLGATLDQFDAIDFSDNEIRKLDGFPLLRRLKTLLVNNNRICRIGEGLDQALPCLTELILTNNSLVELGDLDPLASLKSLTYLSILRNPVTNKKHYRLYVIYKVPQVRVLDFQKVKLKERQEAEKMFKGKRGAQLAKDIARRSKTFNPGAGLPTDKKKGGPSAGDVEAIKNAIANASTLAEVERLKGLLQSGQIPGRERRSGPSDEGEEEIEDDTVTNGS
With B2, the binding entry is listed as “binds”.

The record behind these values is publication doi:10.1101/2025.10.19.683266.
